# PubChem BioAssay AID1259308 – NCATS – 2017
# Aim: 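Knock-downs that increase output of a recombinant reporter protein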 (primary screen)
# Cells: human HEK293 embryonic kidney cells stably expressing firefly luciferase (HEK-CMV-Luc2-Hygro)
# Knock-down reagent: single siRNA against human genes, 0.8 pmol siRNA per well
# Time to read-out: 72 h
# Detection: 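Luciferase light (ONE-Glo) measured on one replicate plate set and viability (CellTiter-Glo) on the other, scaled to a negative control siRNA, with robust z-scores and luciferase per cell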
# Scale: total luciferase, z-score and total luciferase, % of control: higher = more reporter protein produced; luciferase per cell, z-score: higher = more reporter output per viable cell; viable cells, % of control: higher = more viable cells
# Hit rule: 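Active when the median/MAD z-score for overall luciferase is greater than 3; a gene was taken forward for validation with new siRNAs if at least two of its three siRNAs passed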
# Calls: active = raised luciferase; inactive = no rise
# The whole screen tested about 59,000 reagents; shown is a random part of them. Of all reagents, about 1,510 (2.6%) got an active call. 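Calls use total luciferase alone and ignore viability, so some active siRNAs may act by altering cell number.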 Reagents against one gene are numbered here. No sequences are given here.
gene knocked down,reagent,"total luciferase, z-score","total luciferase, % of control","luciferase per cell, z-score","viable cells, % of control",activity call
AICDA (GeneID 57379),1,1.92,120,0.896,106,inactive
AICDA (GeneID 57379),2,0.144,84.8,0.0157,94.3,inactive
AICDA (GeneID 57379),3,-1.28,56.5,-1.86,103,inactive
GOT2 (GeneID 2806),1,-2.08,40.5,-2.4,85,inactive
GOT2 (GeneID 2806),2,-1.24,57.2,-0.93,81.6,inactive
GOT2 (GeneID 2806),3,-0.678,68.4,-0.386,84.6,inactive
CLDN3 (GeneID 1365),1,-0.758,66.8,-0.535,85.9,inactive
CLDN3 (GeneID 1365),2,1.48,111,0.21,118,inactive
CLDN3 (GeneID 1365),3,0.535,92.5,0.422,92.5,inactive
C8G (GeneID 733),1,-0.201,77.9,-0.238,92.7,inactive
C8G (GeneID 733),2,-0.732,67.3,-1.01,98,inactive
C8G (GeneID 733),3,-0.0375,81.1,-0.859,114,inactive
GBP7 (GeneID 388646),1,0.46,91,0.0487,100,inactive
GBP7 (GeneID 388646),2,-0.146,79,-0.636,104,inactive
GBP7 (GeneID 388646),3,0.0558,83,1.84,57.2,inactive
PCNX4 (GeneID 64430),1,-2.14,39.4,-2.27,80,inactive
PCNX4 (GeneID 64430),2,-0.233,77.2,-0.69,104,inactive
PCNX4 (GeneID 64430),3,0.0242,82.4,-0.512,105,inactive
USP6 (GeneID 9098),1,0.448,90.8,0.315,93.4,inactive
USP6 (GeneID 9098),2,-0.95,63,-0.859,88.3,inactive
USP6 (GeneID 9098),3,0.106,84,0.391,84.7,inactive
SNX27 (GeneID 81609),1,1.23,106,1.23,86,inactive
SNX27 (GeneID 81609),2,0.251,86.9,0.0705,95.3,inactive
SNX27 (GeneID 81609),3,-1.43,53.5,-1.87,97.9,inactive
FARSB (GeneID 10056),1,0.627,94.4,0.0706,104,inactive
FARSB (GeneID 10056),2,-0.0688,80.5,0.324,82.6,inactive
FARSB (GeneID 10056),3,-0.79,66.2,-0.882,93.3,inactive
STPG1 (GeneID 90529),1,-0.00227,81.8,-0.179,95.9,inactive
STPG1 (GeneID 90529),2,-0.304,75.8,-0.333,92.5,inactive
STPG1 (GeneID 90529),3,0.927,100,0.531,97.5,inactive
RGPD4-DT (GeneID 729121),1,-0.362,74.7,-0.574,97.1,inactive
RGPD4-DT (GeneID 729121),2,-0.0302,81.3,0.224,85.6,inactive
RGPD4-DT (GeneID 729121),3,0.718,96.2,0.563,92.6,inactive
PSD3 (GeneID 23362),1,-0.0508,80.9,0.536,78.5,inactive
PSD3 (GeneID 23362),2,0.496,91.7,0.223,96.7,inactive
PSD3 (GeneID 23362),3,-0.78,66.4,-0.751,90.4,inactive
NUP58 (GeneID 9818),1,-2.37,34.7,-2.72,79.3,inactive
NUP58 (GeneID 9818),2,-1.57,50.7,-1.47,83.6,inactive
NUP58 (GeneID 9818),3,0.832,98.4,1.08,82.8,inactive

Reprinted from above (3 entries):
gene knocked down,reagent,"total luciferase, z-score","total luciferase, % of control","luciferase per cell, z-score","viable cells, % of control",activity call
C8G (GeneID 733),2,-0.732,67.3,-1.01,98,inactive
C8G (GeneID 733),3,-0.0375,81.1,-0.859,114,inactive
GBP7 (GeneID 388646),1,0.46,91,0.0487,100,inactive
